In assay [1] the target is CD104 (human (endogenous in A818.4)) (UniProt P16144). Description: co-IP; endogenous proteins in TEX (exosome) lysates of A818.4 (wt, CD44v6kd or Tspan8kd); 100 ug lysate, HEPES buffer, 1% Lubrol or 1% TritonX-100; antibody 1h 4°C, ProteinG-Sepharose 1h; Western blot. A general note: A western blot detects proteins with antibodies after separation by electrophoresis.
Assay [2] concerns the target EphA4 (human (endogenous in A818.4)) (UniProt P54764). The assay is described as above.
Assay [3] deals with T1, Tspan8 (human (endogenous in A818.4 and Capan1)) (UniProt P19075).
T1 sequence: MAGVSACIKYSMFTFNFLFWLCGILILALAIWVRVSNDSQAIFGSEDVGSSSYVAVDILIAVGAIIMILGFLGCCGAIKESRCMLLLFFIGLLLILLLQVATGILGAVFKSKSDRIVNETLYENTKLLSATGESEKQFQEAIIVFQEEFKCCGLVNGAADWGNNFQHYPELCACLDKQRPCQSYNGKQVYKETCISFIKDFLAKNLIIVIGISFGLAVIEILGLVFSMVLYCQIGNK
The assay is described as above.

By UniProt entry, the sequences of proteins in these tests, tags left out. Where a name states a change or a piece, a line headed by the entry shows the natural chain unless it says otherwise. Residues count along the entry.
UniProt P16144, residues 28-1822: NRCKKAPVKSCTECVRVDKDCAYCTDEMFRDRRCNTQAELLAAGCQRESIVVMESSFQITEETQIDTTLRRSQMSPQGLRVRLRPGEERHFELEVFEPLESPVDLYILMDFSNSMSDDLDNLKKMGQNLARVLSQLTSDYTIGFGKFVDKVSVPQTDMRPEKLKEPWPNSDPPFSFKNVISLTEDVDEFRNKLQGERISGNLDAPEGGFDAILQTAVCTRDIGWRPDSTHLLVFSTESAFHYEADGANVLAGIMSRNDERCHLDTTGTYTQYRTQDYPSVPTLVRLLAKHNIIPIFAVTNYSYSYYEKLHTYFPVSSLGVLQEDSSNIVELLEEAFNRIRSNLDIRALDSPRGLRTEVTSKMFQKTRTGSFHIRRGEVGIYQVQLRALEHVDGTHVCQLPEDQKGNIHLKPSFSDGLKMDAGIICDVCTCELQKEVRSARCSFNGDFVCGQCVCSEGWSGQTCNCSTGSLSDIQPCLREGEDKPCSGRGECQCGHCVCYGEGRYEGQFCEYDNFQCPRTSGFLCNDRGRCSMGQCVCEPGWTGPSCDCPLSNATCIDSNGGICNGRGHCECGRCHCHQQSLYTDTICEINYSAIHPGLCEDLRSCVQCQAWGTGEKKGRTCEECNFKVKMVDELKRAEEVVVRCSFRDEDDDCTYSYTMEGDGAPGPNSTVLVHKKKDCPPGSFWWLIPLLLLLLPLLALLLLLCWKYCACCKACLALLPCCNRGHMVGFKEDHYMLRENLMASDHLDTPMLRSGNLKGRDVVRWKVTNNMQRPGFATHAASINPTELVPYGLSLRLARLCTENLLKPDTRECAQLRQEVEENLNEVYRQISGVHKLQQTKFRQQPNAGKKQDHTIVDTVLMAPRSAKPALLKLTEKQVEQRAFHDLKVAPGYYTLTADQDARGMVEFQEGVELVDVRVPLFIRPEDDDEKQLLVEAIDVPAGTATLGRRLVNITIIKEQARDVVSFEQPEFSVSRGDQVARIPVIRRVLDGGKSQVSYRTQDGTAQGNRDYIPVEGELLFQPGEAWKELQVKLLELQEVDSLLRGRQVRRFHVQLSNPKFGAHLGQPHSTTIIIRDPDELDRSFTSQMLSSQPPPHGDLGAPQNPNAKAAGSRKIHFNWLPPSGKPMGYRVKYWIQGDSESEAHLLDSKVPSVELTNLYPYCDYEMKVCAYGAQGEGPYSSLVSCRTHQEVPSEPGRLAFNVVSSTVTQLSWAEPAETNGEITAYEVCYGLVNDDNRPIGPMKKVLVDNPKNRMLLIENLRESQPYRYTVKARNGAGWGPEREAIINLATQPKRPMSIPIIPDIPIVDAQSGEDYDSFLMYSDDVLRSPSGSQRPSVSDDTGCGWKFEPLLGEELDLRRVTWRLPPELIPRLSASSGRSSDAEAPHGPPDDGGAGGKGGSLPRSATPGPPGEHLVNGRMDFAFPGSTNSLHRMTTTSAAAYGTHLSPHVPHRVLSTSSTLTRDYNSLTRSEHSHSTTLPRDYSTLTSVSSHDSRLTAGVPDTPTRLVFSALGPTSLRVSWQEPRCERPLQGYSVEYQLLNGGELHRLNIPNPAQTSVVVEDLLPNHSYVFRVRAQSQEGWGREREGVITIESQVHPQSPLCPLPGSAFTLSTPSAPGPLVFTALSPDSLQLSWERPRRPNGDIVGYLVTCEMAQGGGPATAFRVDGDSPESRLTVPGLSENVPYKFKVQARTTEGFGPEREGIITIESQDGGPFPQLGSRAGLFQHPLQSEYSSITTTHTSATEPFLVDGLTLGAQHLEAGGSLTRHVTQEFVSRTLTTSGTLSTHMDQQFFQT
UniProt P54764, residues 20-986: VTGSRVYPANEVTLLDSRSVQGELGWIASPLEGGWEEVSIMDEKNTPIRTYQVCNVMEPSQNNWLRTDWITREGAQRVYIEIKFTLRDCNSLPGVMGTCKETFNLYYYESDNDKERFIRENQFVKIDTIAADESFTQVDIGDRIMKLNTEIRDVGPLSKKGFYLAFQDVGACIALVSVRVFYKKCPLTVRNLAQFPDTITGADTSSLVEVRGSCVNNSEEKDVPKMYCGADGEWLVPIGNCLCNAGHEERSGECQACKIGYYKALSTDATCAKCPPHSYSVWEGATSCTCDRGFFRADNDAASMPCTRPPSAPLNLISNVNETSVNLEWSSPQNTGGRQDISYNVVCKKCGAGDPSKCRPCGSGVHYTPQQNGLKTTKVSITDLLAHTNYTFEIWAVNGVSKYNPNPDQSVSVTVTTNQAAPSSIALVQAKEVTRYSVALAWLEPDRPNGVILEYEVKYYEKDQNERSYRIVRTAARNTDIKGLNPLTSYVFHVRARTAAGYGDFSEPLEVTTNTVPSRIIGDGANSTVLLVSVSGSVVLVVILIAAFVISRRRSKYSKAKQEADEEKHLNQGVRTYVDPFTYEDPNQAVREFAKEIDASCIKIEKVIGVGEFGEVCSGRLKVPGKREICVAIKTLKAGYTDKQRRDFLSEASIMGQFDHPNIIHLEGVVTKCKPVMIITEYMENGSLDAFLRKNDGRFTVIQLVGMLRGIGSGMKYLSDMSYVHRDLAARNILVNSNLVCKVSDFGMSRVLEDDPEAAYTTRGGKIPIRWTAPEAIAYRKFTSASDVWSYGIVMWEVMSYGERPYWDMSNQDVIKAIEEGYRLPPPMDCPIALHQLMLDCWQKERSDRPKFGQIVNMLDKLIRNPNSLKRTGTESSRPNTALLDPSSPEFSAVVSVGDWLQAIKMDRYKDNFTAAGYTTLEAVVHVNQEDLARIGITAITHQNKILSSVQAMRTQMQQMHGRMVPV
UniProt P16070: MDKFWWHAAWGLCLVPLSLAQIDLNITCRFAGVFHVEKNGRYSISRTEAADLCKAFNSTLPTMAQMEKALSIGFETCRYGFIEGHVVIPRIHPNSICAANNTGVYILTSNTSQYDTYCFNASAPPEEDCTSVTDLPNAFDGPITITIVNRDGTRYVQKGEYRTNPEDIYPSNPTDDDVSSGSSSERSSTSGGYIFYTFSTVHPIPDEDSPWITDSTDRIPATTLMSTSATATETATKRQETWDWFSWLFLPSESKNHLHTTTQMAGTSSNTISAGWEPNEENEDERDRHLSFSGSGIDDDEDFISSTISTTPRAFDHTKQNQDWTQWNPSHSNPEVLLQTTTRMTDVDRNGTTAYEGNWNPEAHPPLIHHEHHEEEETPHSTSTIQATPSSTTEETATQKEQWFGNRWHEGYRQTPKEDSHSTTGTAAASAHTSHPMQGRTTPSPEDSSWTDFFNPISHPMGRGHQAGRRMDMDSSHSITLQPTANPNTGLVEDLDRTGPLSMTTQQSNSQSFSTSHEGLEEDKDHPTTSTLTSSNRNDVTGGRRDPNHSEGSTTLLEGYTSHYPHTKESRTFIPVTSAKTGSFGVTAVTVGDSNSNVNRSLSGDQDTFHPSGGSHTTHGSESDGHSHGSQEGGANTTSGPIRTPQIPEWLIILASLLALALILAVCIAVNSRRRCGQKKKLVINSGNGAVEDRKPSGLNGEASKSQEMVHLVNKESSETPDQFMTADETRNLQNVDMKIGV
UniProt P35222: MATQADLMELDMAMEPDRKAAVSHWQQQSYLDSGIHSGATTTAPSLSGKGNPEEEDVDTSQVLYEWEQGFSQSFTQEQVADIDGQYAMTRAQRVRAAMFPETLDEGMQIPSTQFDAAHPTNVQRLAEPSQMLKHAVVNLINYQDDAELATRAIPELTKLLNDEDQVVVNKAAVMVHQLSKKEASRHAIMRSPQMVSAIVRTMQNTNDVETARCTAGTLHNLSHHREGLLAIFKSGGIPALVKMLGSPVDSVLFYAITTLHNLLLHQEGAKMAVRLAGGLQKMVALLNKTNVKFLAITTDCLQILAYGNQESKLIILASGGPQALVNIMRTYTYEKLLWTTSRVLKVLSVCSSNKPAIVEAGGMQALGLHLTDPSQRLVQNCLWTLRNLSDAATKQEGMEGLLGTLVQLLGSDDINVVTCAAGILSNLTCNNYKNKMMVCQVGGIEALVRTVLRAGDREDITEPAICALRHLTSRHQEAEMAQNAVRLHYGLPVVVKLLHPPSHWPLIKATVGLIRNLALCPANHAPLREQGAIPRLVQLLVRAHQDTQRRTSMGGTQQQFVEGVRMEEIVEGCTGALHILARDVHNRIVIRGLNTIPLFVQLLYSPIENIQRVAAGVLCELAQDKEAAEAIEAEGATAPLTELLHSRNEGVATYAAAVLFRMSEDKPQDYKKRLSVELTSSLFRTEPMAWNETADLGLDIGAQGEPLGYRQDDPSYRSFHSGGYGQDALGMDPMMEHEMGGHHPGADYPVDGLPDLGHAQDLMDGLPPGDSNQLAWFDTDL
UniProt Q9H9S0: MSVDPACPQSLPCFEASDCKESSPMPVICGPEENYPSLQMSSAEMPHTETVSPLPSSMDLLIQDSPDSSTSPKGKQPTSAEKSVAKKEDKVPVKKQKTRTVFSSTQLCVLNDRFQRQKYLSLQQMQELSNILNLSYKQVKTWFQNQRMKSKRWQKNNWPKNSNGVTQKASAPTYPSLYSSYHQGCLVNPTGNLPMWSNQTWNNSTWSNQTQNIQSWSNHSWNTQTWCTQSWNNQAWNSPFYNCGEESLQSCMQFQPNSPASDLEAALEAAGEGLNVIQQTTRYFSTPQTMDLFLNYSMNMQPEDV
UniProt P08581, residues 25-1390: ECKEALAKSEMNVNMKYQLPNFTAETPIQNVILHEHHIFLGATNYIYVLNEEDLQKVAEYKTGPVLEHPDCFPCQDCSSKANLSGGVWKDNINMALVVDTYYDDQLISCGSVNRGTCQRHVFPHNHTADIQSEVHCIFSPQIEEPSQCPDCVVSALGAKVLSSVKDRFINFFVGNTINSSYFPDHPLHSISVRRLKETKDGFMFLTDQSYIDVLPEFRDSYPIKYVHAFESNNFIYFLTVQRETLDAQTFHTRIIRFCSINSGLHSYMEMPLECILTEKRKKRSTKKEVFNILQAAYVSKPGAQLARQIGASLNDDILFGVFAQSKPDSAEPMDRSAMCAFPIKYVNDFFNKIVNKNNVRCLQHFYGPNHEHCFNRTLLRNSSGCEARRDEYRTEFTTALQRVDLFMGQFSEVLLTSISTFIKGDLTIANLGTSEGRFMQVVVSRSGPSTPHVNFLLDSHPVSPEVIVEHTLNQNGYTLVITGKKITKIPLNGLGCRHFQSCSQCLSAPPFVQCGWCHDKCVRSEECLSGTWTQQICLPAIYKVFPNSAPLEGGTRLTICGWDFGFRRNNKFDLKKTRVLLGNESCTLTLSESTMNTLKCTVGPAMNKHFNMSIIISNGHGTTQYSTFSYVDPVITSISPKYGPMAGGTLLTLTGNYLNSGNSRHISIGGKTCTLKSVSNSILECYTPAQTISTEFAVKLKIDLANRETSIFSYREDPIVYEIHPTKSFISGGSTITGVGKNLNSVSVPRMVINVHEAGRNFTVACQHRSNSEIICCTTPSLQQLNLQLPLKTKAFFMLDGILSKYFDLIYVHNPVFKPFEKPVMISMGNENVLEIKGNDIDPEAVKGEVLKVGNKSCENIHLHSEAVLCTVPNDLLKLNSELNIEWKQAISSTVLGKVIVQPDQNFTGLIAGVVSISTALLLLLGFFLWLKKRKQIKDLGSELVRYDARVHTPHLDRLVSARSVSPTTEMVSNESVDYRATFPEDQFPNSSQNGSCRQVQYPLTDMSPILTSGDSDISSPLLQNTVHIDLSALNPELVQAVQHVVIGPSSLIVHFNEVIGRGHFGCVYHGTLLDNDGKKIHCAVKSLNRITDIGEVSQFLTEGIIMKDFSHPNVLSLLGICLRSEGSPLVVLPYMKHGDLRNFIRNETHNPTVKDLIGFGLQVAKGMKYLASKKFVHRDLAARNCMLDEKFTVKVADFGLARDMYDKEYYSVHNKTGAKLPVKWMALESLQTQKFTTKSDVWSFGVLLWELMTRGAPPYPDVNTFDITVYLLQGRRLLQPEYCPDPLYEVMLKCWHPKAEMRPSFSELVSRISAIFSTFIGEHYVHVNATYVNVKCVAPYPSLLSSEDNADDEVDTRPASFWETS

The target in assay [4] is T2, prostaglandin F2 receptor negative regulator (human (endogenous in A818.4)) (UniProt Q9P2B2).
T2 sequence: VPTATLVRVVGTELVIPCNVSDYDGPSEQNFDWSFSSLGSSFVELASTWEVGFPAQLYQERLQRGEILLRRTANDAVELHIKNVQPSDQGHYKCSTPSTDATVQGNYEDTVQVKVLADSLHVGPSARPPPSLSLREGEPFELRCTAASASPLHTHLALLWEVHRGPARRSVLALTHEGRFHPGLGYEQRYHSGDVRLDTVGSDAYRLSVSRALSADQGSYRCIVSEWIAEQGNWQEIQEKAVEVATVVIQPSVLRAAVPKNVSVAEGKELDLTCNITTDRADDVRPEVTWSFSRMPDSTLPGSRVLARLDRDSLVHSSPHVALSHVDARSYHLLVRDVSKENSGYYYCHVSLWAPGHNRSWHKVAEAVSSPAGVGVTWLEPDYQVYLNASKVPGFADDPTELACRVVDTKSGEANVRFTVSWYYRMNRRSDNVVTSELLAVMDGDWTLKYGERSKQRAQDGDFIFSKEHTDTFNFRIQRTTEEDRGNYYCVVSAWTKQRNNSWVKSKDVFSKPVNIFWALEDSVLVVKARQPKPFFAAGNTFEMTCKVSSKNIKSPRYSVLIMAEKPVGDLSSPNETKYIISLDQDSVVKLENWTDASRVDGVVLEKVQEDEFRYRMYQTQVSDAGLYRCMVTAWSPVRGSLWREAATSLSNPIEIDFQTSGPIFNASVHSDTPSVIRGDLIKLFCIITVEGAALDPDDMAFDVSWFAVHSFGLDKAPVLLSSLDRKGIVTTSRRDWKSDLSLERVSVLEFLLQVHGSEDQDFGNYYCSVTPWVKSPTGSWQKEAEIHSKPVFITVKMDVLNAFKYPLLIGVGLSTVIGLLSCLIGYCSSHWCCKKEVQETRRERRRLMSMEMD
The description is as above.

The target in assay [5] is CD104 (human (endogenous in A818.4)) (UniProt P16144). Briefly: co-IP; endogenous proteins in cell lysates (A818.4; Figure 6(d) also Capan1; wt, CD44v6kd or Tspan8kd cells); 500 ug lysate, HEPES buffer, 1% Lubrol or 1% TritonX-100; antibody 1h 4°C, ProteinG-Sepharose 1h; Western blot.
For assay [6], the target named is EphA4 (human (endogenous in A818.4)) (UniProt P54764). The assay is described as above.
Assay [7] has as its target T2, prostaglandin F2 receptor negative regulator (human (endogenous in A818.4)). The description is as above.
Assay [8] deals with CD44 variant 6 isoform (human (endogenous in A818.4 and Capan1)) (UniProt P16070). The description is as above.
The target is the same in assay [9]. The description is as above. This is another data set of the same source.
Assay [10] shares this target. Description: co-IP; endogenous proteins in TEX (exosome) lysates of A818.4 (wt, CD44v6kd or Tspan8kd); 100 ug lysate, HEPES buffer, 1% Lubrol or 1% TritonX-100; antibody 1h 4°C, ProteinG-Sepharose 1h; Western blot.

Results are given in words; binding and its absence hold for the method and conditions named. In cells and extracts the contact can be indirect. A result given as binding can be weak or reduced; the word gives no strength. For some assays here: Sequences can lack the tags named with a protein.

Take “CD44 variant 6 isoform (from UniProt P16070)”: the binding entry in assay [1], in assay [2], in [3], in assay [4], in assay [5] and in [6] was “binds” throughout. Further, the binding result in [7] is on record as “binds”.

Take β-catenin (from UniProt P35222 1-781): the binding result in [8] is recorded as “binds weakly”.

For Nanog (from UniProt Q9H9S0 1-305), the binding entry in assay [8] is “binds weakly”.

For “MET (from UniProt P08581 25-1390) (receptor)”, the binding result in [8] is “binds”.

On to NOTCH (from UniProt P46531 19-2555), for which the binding entry in [8] is listed as “binds”.

B1: Tspan8 (protein, UniProt P19075 1-237)
chain: T1 sequence
Turning to B1, the binding entry in assay [9] and in assay [10] was “binds” throughout.

B2: leucine rich repeat containing G protein-coupled receptor 5 (receptor, UniProt O75473 22-907)
chain: GSSPRSGVLLRGCPTHCHCEPDGRMLLRVDCSDLGLSELPSNLSVFTSYLDLSMNNISQLLPNPLPSLRFLEELRLAGNALTYIPKGAFTGLYSLKVLMLQNNQLRHVPTEALQNLRSLQSLRLDANHISYVPPSCFSGLHSLRHLWLDDNALTEIPVQAFRSLSALQAMTLALNKIHHIPDYAFGNLSSLVVLHLHNNRIHSLGKKCFDGLHSLETLDLNYNNLDEFPTAIRTLSNLKELGFHSNNIRSIPEKAFVGNPSLITIHFYDNPIQFVGRSAFQHLPELRTLTLNGASQITEFPDLTGTANLESLTLTGAQISSLPQTVCNQLPNLQVLDLSYNLLEDLPSFSVCQKLQKIDLRHNEIYEIKVDTFQQLLSLRSLNLAWNKIAIIHPNAFSTLPSLIKLDLSSNLLSSFPITGLHGLTHLKLTGNHALQSLISSENFPELKVIEMPYAYQCCAFGVCENAYKISNQWNKGDNSSMDDLHKKDAGMFQAQDERDLEDFLLDFEEDLKALHSVQCSPSPGPFKPCEHLLDGWLIRIGVWTIAVLALTCNALVTSTVFRSPLYISPIKLLIGVIAAVNMLTGVSSAVLAGVDAFTFGSFARHGAWWENGVGCHVIGFLSIFASESSVFLLTLAALERGFSVKYSAKFETKAPFSSLKVIILLCALLALTMAAVPLLGGSKYGASPLCLPLPFGEPSTMGYMVALILLNSLCFLMMTIAYTKLYCNLDKGDLENIWDCSMVKHIALLLFTNCILNCPVAFLSFSSLINLTFISPEVIKFILLVVVPLPACLNPLLYILFNPHFKEDLVSLRKQTYVWTRSKHPSLMSINSDDVEKQSCDSTQALVTFTSSSITYDLPPSSVPSPAYPVTESCHLSSVAFVPCL
Consider B2, for which, in [9], the binding entry is listed as “binds”.
